One compound from publication PMC12006758 (Frontiers in Chemistry, 2025) can be followed below.

Values after ≈ are worked out from the molar mass of the structure shown.

The subject of the experiment is PC3 cancer cell line. Nature of the experiment: MTT cell viability assay, PC3. It is filed as cell-based. Particulars: Homo sapiens, read-out: IC50 PC3. The method, then: All cell lines were obtained from the Vacsera Cell Culture Library, Tissue Culture Unit, Cairo, Egypt, with ATCC certification. For further details, See Supplementary Appendix A in the supplementary data.
All cell lines were obtained from the Vacsera Cell Culture Library, Tissue Culture Unit, Cairo, Egypt, with ATCC certification.
Cells were cultured in DMEM (Invitrogen/Life Technologies) supplemented with 10% FBS (Hyclone), […] (Sigma), and 1% penicillin-streptomycin. Cells were seeded at a density of 1.2–1.8 × 10,000 cells per well in 96-well plates with 100 µL of complete growth medium […]. After 24 hours of incubation, 100 µL of serially diluted sterile test compounds were added to achieve final concentrations ranging from 0.01 to 100 µM, with growth media serving as the negative control. Following another 24-hour incubation, supernatants were removed, and cells were prepared for MTT testing.
Each experiment included a blank control with complete media but no cells. […] Reconstituted MTT was added to the culture medium at 10% of its volume, and cultures were incubated for 2 to 4 hours, depending on cell type and density.
Absorbance was measured spectrophotometrically at 570 nm, with background absorbance at 690 nm subtracted. Data from all experiments were recorded, and cell viability percentages were calculated.

As to `CN[C@@H]1C[C@H]2O[C@@](C)([C@@H]1OC)n1c3ccccc3c3c4c(c5c6ccccc6n2c5c31)C(=O)NC4` [Staurosporine], the IC50 (commonly the midpoint of a concentration-inhibition curve) was determined as 1.2 µg/mL (≈ 2.57 µM).
